We go through 40 compounds from PubChem BioAssay AID493014 (National Center for Advancing Translational Sciences (NCATS), 2011).

The structures appear in SMILES notation. The list shows a part of the results. The main result of the screen is listed elsewhere. These columns were measured beside it and carry no call. The list favours compounds with an active or inconclusive main result. The note in brackets gives the kind of curve behind each potency; many fits are weak.

The nature of the assay: qHTS Assay to Find Inhibitors of Chronic Active B-Cell Receptor Signaling. As to conditions: ABC-DLBCL IkBa-CBG/CBR reporter, luminescence ratio (green luciferase fused to IkBa over red control in TMD8 lymphoma cells), 4 h. The method in brief: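 Doxycycline induced both beetle luciferases in TMD8 lymphoma cells; IKK-driven degradation limits the IkappaBalpha-fused green signal, while red luminescence normalises for cell number and nonspecific effects. Compounds tested up to 46 uM, 4 hrs.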
For orientation: Quantitative high-throughput screening tests each substance at several concentrations.

The mark [1] stands for this setting: measured here: CBR red luminescence, cell number.
Where [2] appears, read: measured here: IkBa-CBG green luminescence.

The AC50 is the concentration at which the activity in the assay is half-maximal. Regarding `CC1CCCCN1S(=O)(=O)c1ccc2[nH]c(=O)cc(C(=O)NCCc3ccc(Cl)cc3)c2c1` (centres undefined), under setting [1], the half-maximal activity concentration (AC50) was 0.631 µM [rising, full curve, poor fit].
Still for that read-out and setting: the same measure for `CCN1CCc2nc(SCC(=O)Nc3ccc(OC)cc3)c(C#N)cc2C1`: 14.1 µM [rising, single point].
Still for that read-out and setting: as for `CCn1ccnc1CN(C)Cc1cn(-c2cc(C)ccc2C)nc1-c1ccccc1`, the figure is 15.8 µM [falling, single point]; as for `O=C(c1ccc(Cl)cc1)N1CCCC(C(=O)N2CCCCC2)C1` (centres undefined), 1 µM [falling, partial curve, poor fit].
Same read-out and setting: as for `O=C(NNc1nc(-c2ccccc2)cs1)c1ccccc1`, the figure is 35.5 µM [falling, single point]; as for `O=C(CNC(=O)c1ccccc1)N/N=C/c1ccc([N+](=O)[O-])s1`, 15.8 µM [falling, partial curve, poor fit]; as for `COc1cc(OC)cc(C(=O)Nc2cccc(NC(C)=O)c2)c1`, 9.2 µM [falling, partial curve].
For `CCCCCOC(=O)CCN1C(=O)/C(=C2\SC(=S)N(CCC(=O)OCCCCC)C2=O)SC1=S`, the AC50 under setting [1] is 1.26 µM [falling, full curve, poor fit].
Same read-out and setting: as for `CCCC(=O)Nc1ccc2c(c1)nc(CN1CCN(C(=O)OCC)CC1)n2C`, the figure is 0.158 µM [rising, full curve, poor fit]; as for `O=C(c1ccco1)N1CCN(c2ncnc3c(-c4ccccc4)nsc23)CC1`, 1.58 µM [rising, partial curve, poor fit].
As to `Cc1ccccc1NCC(=O)c1ccc(Br)cc1`, the half-maximal activity concentration (AC50) reads like this: under setting [1], 35.5 µM [falling, single point]; under setting [2], 35.5 µM [falling, partial curve, poor fit].
On to `O=C(O)c1cc2c(cc1NC(=O)C1CCCC1)OCCO2`, for which the AC50 under setting [1] was 2.91 µM [falling, single point].
On the same count and under the same terms, as for `Cc1cc(C)cc(C(=O)OCC(=O)N2CCCC2)c1`, the figure is 0.112 µM [rising, full curve, poor fit]; as for `Cc1cc(NC(=O)CCc2ccccc2)c([N+](=O)[O-])cc1C`, 13 µM [rising, partial curve]; as for `COc1ccccc1OCCNC(=O)C1CC(=O)N(c2ccccc2OC)C1` (centres undefined), 5.17 µM [rising, partial curve].
In the case of `CCCn1c(SCC(=O)N2CCc3ccccc3C2)nc2c1c(=O)n(C)c(=O)n2C`, under setting [1], the concentration at half-maximal activity (AC50) was 2.06 µM [falling, partial curve, poor fit].
Still for that read-out and setting: as for `CCc1ccc(CN2CCC(C(=O)Nc3ccc(Oc4ccccc4)nc3)CC2)o1`, the figure is 1.41 µM [rising, full curve, poor fit]; as for `COc1ccccc1NC(=O)C(C)OC(=O)c1cc2ccccc2[nH]1` (centres undefined), 11.6 µM [falling, partial curve]; as for `COc1ccc(N2CCN(C(=O)c3ccccc3N(C)S(=O)(=O)c3ccc(C)cc3)CC2)cc1`, 3.98 µM [rising, full curve, poor fit].
The same measure, in the same setting: as for `Cc1ccc(-c2cc(C(=O)O)c3sc(N4CCCCC4)nc3n2)cc1`, the figure is 8.2 µM [rising, partial curve, poor fit].
As for `O=[N+]([O-])c1ccc(NC(=S)NCCc2ccc(F)cc2)cc1`, the half-maximal activity concentration (AC50) is 29.1 µM [falling, single point] under setting [1] and 29.1 µM [rising, single point] under setting [2].
On to `COc1cc(C(=O)NCc2nnc(SCC(=O)Nc3nc4ccc(C)cc4s3)o2)cc(OC)c1OC`, for which, under setting [1], the concentration at half-maximal activity (AC50) is 0.651 µM [rising, full curve, poor fit].
On the same count and under the same terms, as for `CC(C)c1cccc(C(C)C)c1NC(=O)COC(=O)C1CCC1`, the figure is 0.00651 µM [rising, full curve, poor fit].
As for `COc1cc(Br)cc(/C=C/c2ccc3cccc(O)c3n2)c1O`, the AC50 is 4.47 µM [rising, full curve] under setting [1] and 3.16 µM [falling, full curve] under setting [2].
For the compound `COC(=O)C(CC(C)C)NC(=O)c1cc(OC)c(OC)c(OC)c1` (centres undefined), the half-maximal activity concentration (AC50) under setting [1] was 9.2 µM [falling, partial curve, poor fit].
On the same count and under the same terms, the same measure for `Cc1ccc(NC(=O)CN(C)C(=O)c2cc(C)on2)cc1`: 29.1 µM [rising, single point].
On the same count and under the same terms, as for `CCOC(=O)C1(Nc2nccs2)Sc2ccccc2NC1=O` (centres undefined), the figure is 7.08 µM [falling, full curve]; as for `COCCNc1oc(-c2ccc(C)cc2)nc1C#N`, 0.92 µM [rising, full curve, poor fit].
On to `CCOC(=O)C1CCCN(C(=O)c2cc(-c3ccc(C)cc3)on2)C1` (centres undefined), for which, under setting [1], the AC50 was 2.82 µM [rising, full curve, poor fit].
The same measure, in the same setting: the same measure for `O=C(c1cccc2ccccc12)N1CCC(N2CCN(c3ccccc3)CC2)CC1`: 3.98 µM [falling, partial curve, poor fit]; for `CCOc1ccccc1NC(=O)N1C2CCCC1CC(NC(=O)C1CC1)C2` (centres undefined): 29.1 µM [falling, single point].
Same read-out and setting: as for `COC(=O)c1cc(Br)c(=O)n(CCc2ccc(O)cc2)c1`, the figure is 25.1 µM [falling, single point]; as for `CC(C)n1ncc2c(C(=O)Nc3cccc(C#N)c3)cc(C3CC3)nc21`, 29.1 µM [falling, single point].
The same measure, in the same setting: as for `CC1(C)Cc2c(c(N3CCOCC3)nc3snc(Br)c23)CO1`, the figure is 2.82 µM [rising, full curve, poor fit]; as for `CCCCCCCCCC[n+]1cccc2c3ccccc3ccc21`, 35.5 µM [falling, single point].
In the case of `Cc1ccc(NC(=O)Cn2cccc2)cc1`, under setting [1], the AC50 was 11.2 µM [rising, partial curve, poor fit].
Turning to `COCCNC(=S)NN=C1CCCCCC1`, the AC50 runs as follows: under setting [1], 31.6 µM [falling, single point]; under setting [2], 25.1 µM [falling, single point].
As to `O=C(COc1ccccc1)Nc1ccc(CSc2ccccc2)cc1`, the AC50 under setting [1] was 4.47 µM [rising, full curve, poor fit].
Still for that read-out and setting: the same measure for `CCCc1ccc2oc(C(=O)N(C)Cc3ccn[nH]3)c(C)c2c1`: 6.31 µM [rising, partial curve].
The same measure, in the same setting: as for `CCOc1cc(-c2noc(N)c2C(=O)OC)cc(OCC)c1OCC`, the figure is 35.5 µM [falling, partial curve, poor fit].
